# Assay results

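GFP-tagged normal-ribosome E. coli mixed with an RFP-tagged h34 humanized strain, with green signal taken as growth after 24 hours.
The value is the change in activity at the highest dose tested; more negative means stronger inhibition.
Active requires GFP to fall at least twice as much as RFP with growth loss below a set limit; inconclusive means no clear call; everything else is inactive.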

Only part of the assay is shown, chiefly results filed as inconclusive.

COc1cc(OC)cc(C(=O)N[C@H](C(=O)OCC(=O)Nc2ccc(F)c(F)c2F)C(C)C)c1 [at 50 µM (top of the series)] gave activity change 16.84 (inactive).
CC(=O)Nc1cccc(-c2ccnc3c2CC(C(=O)Nc2ccc4c(c2)OCO4)O3)c1 (configuration not stated) [at 50 µM (top of the series)] gave activity change -8.237 (inactive).
CN(CC(=O)Nc1cccc(F)c1)C(=O)Cn1c(=O)oc2ccccc21 [at 50 µM (top of the series)] gave activity change 21.78 (inconclusive).
O=C(Nc1ccccc1F)N1CCCCN2[C@@H](CO)[C@H](c3ccc(-c4cccnc4)cc3)[C@@H]2C1 [at 50 µM (top of the series)] gave activity change 9.37 (inactive).
COc1ccc(C(=O)COc2ccc(F)cc2)c(O)c1 [at 50 µM (top of the series)] gave activity change 2.712 (inactive).
O=C(COC(=O)C1CC2C=CC1C2)NCCc1ccccc1 (configuration not stated) [at 50 µM (top of the series)] gave activity change 14.51 (inactive).
Cc1ccc(NC(=O)CN(C)C(=O)Cc2coc3cc(C)c(C)cc23)cc1 [at 50 µM (top of the series)] gave activity change -21.93 (inconclusive).
CCC1(CC)NC(=O)N(CC(=O)N2N=C(c3ccc(Cl)cc3)CC2c2ccco2)C1=O (configuration not stated) [at 50 µM (top of the series)] gave activity change 16.35 (inconclusive).
O=C(CSc1nc2ccccc2n1S(=O)(=O)c1cccc([N+](=O)[O-])c1)NCCc1ccccc1 [at 50 µM (top of the series)] gave activity change 16.94 (inconclusive).
CCOC(=O)c1cnc2c(ccc3ccccc32)c1NCCCN(C)C [at 50 µM (top of the series)] gave activity change 11.02 (inconclusive).
CC(C)Oc1ccc(C(CC(=O)O)NC(=O)C(Sc2ccccc2)c2ccccc2)cc1 (configuration not stated) [at 50 µM (top of the series)] gave activity change 9.07 (inconclusive).
COc1ccc(OC(C)C(=O)Nc2cccc(F)c2)cc1 (configuration not stated) [at 50 µM (top of the series)] gave activity change 22.9 (inconclusive).
CCCCCCC(=O)N1CCCC(c2nc(-c3cccc(OC)c3)no2)C1 (configuration not stated) [at 50 µM (top of the series)] gave activity change -7.274 (inconclusive).
O=C(NCc1ccc2c(c1)OCO2)c1sccc1Br [at 50 µM (top of the series)] gave activity change 4.205 (inactive).
COc1ccccc1-c1ccc(SCc2ccc(F)cc2)nn1 [at 50 µM (top of the series)] gave activity change -14.39 (inconclusive).
Cc1ccccc1-n1c([C@@H]2C[C@H]2c2ccccc2)n[nH]c1=S [at 50 µM (top of the series)] gave activity change -9.316 (inconclusive).
COc1cccc(NC(=O)C(c2ccccc2)N2CCN(c3ccccn3)CC2)c1 (configuration not stated) [at 50 µM (top of the series)] gave activity change 14.54 (inconclusive).
COc1ccccc1CNC(=O)CN1C(=O)NC(c2ccccc2)(c2ccccc2)C1=O [at 50 µM (top of the series)] gave activity change -23.73 (inconclusive).
O=S(=O)(Cc1ccccc1)N1CCCCN2[C@@H](CO)[C@@H](c3ccc(-c4cccnc4)cc3)[C@@H]2C1 [at 50 µM (top of the series)] gave activity change -28.89 (inconclusive).
Nc1ccc2nc(-c3ccc(Cl)cc3)[nH]c2c1 [at 50 µM (top of the series)] gave activity change 58.36 (inconclusive).
Cc1ccc(S(=O)(=O)N2CC(=O)Nc3ccccc32)cc1C [at 50 µM (top of the series)] gave activity change -9.427 (inactive).

Some entries from above, unchanged:

{"compound": "COc1ccc(OC(C)C(=O)Nc2cccc(F)c2)cc1", "stereo": "configuration not stated", "tested on / at": "at 50 µM (top of the series)", "activity change": "22.9", "filed as": "inconclusive"}
{"compound": "Nc1ccc2nc(-c3ccc(Cl)cc3)[nH]c2c1", "tested on / at": "at 50 µM (top of the series)", "activity change": "58.36", "filed as": "inconclusive"}

Source: PubChem BioAssay AID977624 (Broad Institute, 2014).